Laboratory results from PubChem BioAssay AID1347076 (National Center for Advancing Translational Sciences (NCATS), 2019).
The campaign covered roughly 400,000 compounds. About 13,000 (3.2%) were called active. The inconclusive results got no clear call from the source; some entries with a clear call stand among them for comparison. Calls come from the whole dose curve; as a rule, active = well fitted cell-killing curve with a large enough effect; inconclusive = small, poorly fitted or top-dose-only effect, or effect the other way; inactive = flat fitted curve, though single readings scatter. Potencies beside an inconclusive call are fits to weak or partial responses and may not hold up.

assay: qHTS assay for MDR1-selective chemotherapeutics: Primary screen using the drug-selected MDR subline cells KB-V1; conditions: KB-V1 MDR cells viability, CellTiter-Glo, 72 h; series mostly up to 46.1 µM; note: nearly all actives have a fitted effect of over 60% in size
Summary of the method: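 qHTS viability screen in drug-selected KB-V1 MDR cells: 72 h compound treatment at 37 degrees C, ATP luminescence end point.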
Potency is the fitted concentration of half-maximal effect.

Row | SMILES | Potency
1 | CNC1=C(N(C(C)=O)c2ccc(Br)cc2)C(=O)c2ccccc2C1=O | inconclusive: 25.9 µM [cytotoxic, partial curve, poor fit]
2 | CCc1ccc(C2=Nn3c(nnc3-c3cccs3)SC2)cc1 | inconclusive: 20.6 µM [cytotoxic, single point]
3 | COc1ccc(Cl)cc1NC(=O)Cn1c(=O)n(CCCC(=O)NCCc2ccc(OC)c(OC)c2)c(=O)c2ccccc21 | inactive
4 | Cc1ccccc1S(=O)(=O)N1C[C@H]2CON(C)[C@H]2C[C@H]1c1cccc(-c2ccc(C#N)cc2)c1 | inactive
5 | COc1cccc(N2C(=O)CSC23C(=O)N(CC(=O)Nc2cccc(Cl)c2)c2ccccc23)c1 (stereo not given) | inconclusive: 29.1 µM [rising, single point]
6 | O=C(CSc1cn(CCNC(=O)c2ccccc2F)c2ccccc12)Nc1ccc(F)cc1 | inactive
7 | CCN(CC(=O)Nc1ccc(NC(C)=O)cc1)C(=O)CCCc1c[nH]c2ccccc12 | inconclusive: 20.6 µM [rising, single point]
8 | O=C(NCCC1CCCCN1S(=O)(=O)c1ccc(F)cc1)C(=O)NC1CC1 (stereo not given) | inconclusive: 0.0184 µM [cytotoxic, full curve]
9 | COc1cccc(NC(=O)COc2ccc(C(=S)N3CCN(C)CC3)cc2OC)c1 | inconclusive: 4.61 µM [cytotoxic, full curve]
10 | COC(=O)c1ccccc1NC(=O)Cn1c(SC)c(F)cnc1=O | inconclusive: 4.11 µM [cytotoxic, full curve, poor fit]
11 | CCn1c(C)c(C)c2cc(C(=O)N3CCN(c4cccc(C)c4C)CC3)ccc21 | inactive
12 | COc1cc(C(=O)NCC2CCCO2)ccc1OCc1ccccc1 (stereo not given) | inconclusive: 25.9 µM [cytotoxic, single point]
13 | CCOC(=O)Cc1csc(NC(=O)CSc2nnc(-n3nc(C)cc3C)c3ccccc23)n1 | active: 20.6 µM
14 | O=C(c1ccc(C(F)(F)F)cc1)N1CCC(=O)N([C@H](COCc2ccc(C(F)(F)F)cc2)Cc2ccccc2)CC1 | inconclusive: 14.6 µM [cytotoxic, partial curve]
15 | COc1cc(CN(C(=O)COc2ccccc2Cl)c2ccccn2)cc(OC)c1OC | inactive
16 | COc1cccc(-c2nn(C)c3sc(C(=O)N4CCN(c5ccccc5)CC4)cc23)c1 | inconclusive: 32.6 µM [cytotoxic, partial curve, poor fit]
17 | COc1cccc(NC(=S)N(CCc2nc3cc(C)c(C)cc3[nH]2)Cc2cccnc2)c1 | inconclusive: 1.64 µM [cytotoxic, partial curve, poor fit]
18 | CCc1nc2ccc(C(=O)Nc3ccc(NC(C)=O)cc3)cc2nc1CC | inconclusive: 5.8 µM [cytotoxic, partial curve]
19 | Cc1ccc(S(=O)(=O)N2CCN(C(=O)C3CCN(C(=O)c4ccc(F)cc4)CC3)CC2)c(C)c1 | inconclusive: 16.4 µM [cytotoxic, partial curve, poor fit]
20 | COc1ccc(/C=N/NC(=O)c2[nH]c3ccc(Br)cc3c2-c2ccccc2)cc1 | active: 1.03 µM
21 | O=C(CSC1=N/C(=C/c2ccc(Cl)c(Cl)c2)C(=O)N1c1ccccc1F)NC1CC1 | active: 14.6 µM
22 | COc1ccc2nc(N3CCCC3)c(C#N)cc2c1 | active: 13 µM

Row | SMILES | Potency
23 | Cc1ccc2[nH]c(=O)c3cc(C(=O)NCCN4CCN(C)CC4)sc3c2c1 | inconclusive: 32.6 µM [rising, single point]
24 | COc1ccc(CC(=O)Nc2cc(-c3nc4cccnc4s3)ccc2C)cc1 | inactive
25 | CN(C)S(=O)(=O)N(CC(=O)NCCSCc1cccc(Cl)c1)c1ccccc1 | inconclusive: 29.1 µM [cytotoxic, single point]
26 | O=C(NNC(=O)C1CCC(C(=O)NNC(=O)c2cccs2)CC1)c1cccs1 (stereo not given) | inactive
27 | CCC1(C)Cc2c(sc3nc(NC)n(C)c(=O)c23)CO1 (stereo not given) | inconclusive: 23.1 µM [cytotoxic, partial curve, poor fit]
28 | Cc1cccc(NC(=O)CSc2nc3ccccc3nc2N2CCCC2)c1 | inconclusive: 0.116 µM [rising, partial curve, poor fit]
29 | CCC(CC)C(=O)N1CCc2cc(OC)c(OC)cc2C1COc1ccc(C(=O)OC)cc1 (stereo not given) | inconclusive: 23.1 µM [cytotoxic, single point]
30 | S=C1NCCN1CC1CCN(CCC23CC4CC(CC(C4)C2)C3)CC1 | inactive
31 | CCOC(=O)C1=C(C)Nc2ccccc2N=C1NC(=O)C(c1ccccc1)c1ccccc1 | inconclusive: 2.59 µM [cytotoxic, partial curve]
32 | CSc1ccc(-c2nnn(CC(=O)NCc3ccccc3)n2)cc1 | inconclusive: 20.6 µM [cytotoxic, single point]
33 | Cn1c(SCC(=O)Nc2ncc(C(F)(F)F)cc2Cl)nnc1-c1ccc(Cl)cc1 | inactive
34 | C(=N\n1cnnc1)/c1ccccc1OCCOc1ccccc1 | inconclusive: 29.1 µM [cytotoxic, single point]
35 | CCSC1=NCCN1C(=O)C(C)(C)Oc1ccc(Cl)cc1 | inconclusive: 13 µM [cytotoxic, partial curve, poor fit]
36 | Cn1c(SCC(=O)c2ccc3c(c2)OCO3)nnc1C1COc2ccccc2O1 (stereo not given) | inconclusive: 4.11 µM [cytotoxic, full curve]
37 | COc1ccc(-c2noc(COc3ccc(C)c(C)c3)n2)cc1OC | inconclusive: 20.6 µM [cytotoxic, single point]
38 | O=c1c2ccccc2nc(SCc2ccccc2)n1CC1CCCO1 (stereo not given) | inconclusive: 9.2 µM [cytotoxic, partial curve, poor fit]
39 | Cc1cc(Br)ccc1SCC(=O)OCC(=O)Nc1ccc2[nH]c(=O)[nH]c2c1 | inconclusive: 29.1 µM [rising, single point]
40 | Cc1ccc2cc(CCNC(=O)c3ccco3)c(=O)[nH]c2c1C | inconclusive: 29.1 µM [cytotoxic, partial curve, poor fit]
41 | COc1cc([N+](=O)[O-])ccc1NC(=O)N1CCCCCC1 | inactive
42 | CCN(CC)S(=O)(=O)c1ccc2c(c1)N(CC(=O)Nc1cccc(C)c1C)C(=O)C1CCCN21 (stereo not given) | inactive
43 | COC(=O)c1ccc(NC(=O)C(=O)NCCc2csc3nc(-c4ccccc4F)nn23)cc1 | inactive
44 | Cc1cc(C)c2c(NC(=S)Nc3ccccc3)n[nH]c2n1 | inconclusive: 20.6 µM [cytotoxic, single point]

Arranged by formula weight (ascending): 3 of the compounds above.
Row | SMILES | Potency
38 | O=c1c2ccccc2nc(SCc2ccccc2)n1CC1CCCO1 (stereo not given) | inconclusive: 9.2 µM [cytotoxic, partial curve, poor fit]
36 | Cn1c(SCC(=O)c2ccc3c(c2)OCO3)nnc1C1COc2ccccc2O1 (stereo not given) | inconclusive: 4.11 µM [cytotoxic, full curve]
31 | CCOC(=O)C1=C(C)Nc2ccccc2N=C1NC(=O)C(c1ccccc1)c1ccccc1 | inconclusive: 2.59 µM [cytotoxic, partial curve]

More compounds follow.

Row | SMILES | Potency
45 | CC(Sc1nc2cc(Cl)ccc2s1)C(=O)Nc1ccc2c(c1)OCO2 (stereo not given) | inconclusive: 1.03 µM [rising, full curve]
46 | O=C(Nc1nc2ccccc2c(=O)[nH]1)c1ccccc1SCc1ccccc1 | inconclusive: 18.4 µM [cytotoxic, single point]
47 | CSC1=NC(C(Cl)(Cl)Cl)N=C(c2ccc(C)cc2)N1 (stereo not given) | active: 1.3 µM
48 | CC(=O)Nc1ccc(OCC(O)CN2CCN(c3cc(Cl)ccc3C)CC2)cc1 (stereo not given) | active: 4.11 µM
49 | COc1ccc(CNC(=O)c2sc(=O)n(Cc3ccc(S(=O)(=O)N(C)C)cc3)c2C)cc1 | inconclusive: 2.59 µM [cytotoxic, full curve, poor fit]
50 | O=C(CCCN1CCC(O)(c2ccc(Cl)cc2)CC1)c1ccc(F)cc1 | inconclusive: 8.2 µM [cytotoxic, partial curve, poor fit]
51 | CCOC(=O)c1[nH]c(C)c(C(=O)Nc2cccc(Cl)c2C)c1C | active: 6.51 µM
52 | COc1ccccc1CCNC(=O)c1cc(-c2ccncc2)nc2ccc(Br)cc12 | inconclusive: 5.17 µM [cytotoxic, full curve]
53 | CC(=O)c1c(C)[nH]c(C(=O)NCc2cccc(Cl)c2)c1C | inconclusive: 13 µM [cytotoxic, partial curve]
54 | COc1ccc(S(=O)(=O)N(C)c2ccc(C(=O)Nc3cccnc3)cc2)cc1OC | inconclusive: 29.1 µM [cytotoxic, single point]
55 | FC(F)(F)c1cccc(NCc2n[nH]c(=S)n2C2CCCCC2)c1 | inconclusive: 14.6 µM [cytotoxic, single point]
56 | CN(C)c1cccc(C(=O)Nc2ccc(N3CCOCC3)cc2)c1 | inconclusive: 23.1 µM [cytotoxic, partial curve, poor fit]
57 | CC(C)(C)OC(=O)N1CCC(c2cc(=O)n3[nH]c(-c4ccc(Cl)cc4)cc3n2)CC1 | inconclusive: 16.4 µM [rising, partial curve]
58 | NNc1ccc2nnc(C(F)(F)C(F)(F)C(F)(F)F)n2n1 | inconclusive: 7.31 µM [rising, partial curve]
59 | Cc1ccc(Cl)cc1NC(=S)NCCCSC1CCCCC1 | inconclusive: 16.4 µM [cytotoxic, single point]
60 | Cc1cccc(N2CCN(C(=O)CCN3C(=O)C4C5C=CC(C5)C4C3=O)CC2C)c1 (stereo not given) | inconclusive: 25.9 µM [cytotoxic, single point]
61 | O=C(OCC(=O)N(C1CCCCC1)C1CCCCC1)c1ccc(Cl)nc1 | inactive
62 | O=C(NCCCn1ccnc1)c1ccc(C(F)(F)F)cc1 | inconclusive: 29.1 µM [rising, single point]
63 | Cc1cc(C)n(-c2cc(C(C)(C)C)nc3c(-c4ccccc4)cnn23)n1 | inconclusive: 11.6 µM [cytotoxic, partial curve]
64 | O=C(NC(=S)N(CC1CCC1)CC1CCCO1)c1cccc([N+](=O)[O-])c1 (stereo not given) | inconclusive: 3.26 µM [cytotoxic, full curve]
65 | CN1CCN(C(c2ccc(Cl)cc2)c2cc(Cl)c3cccnc3c2O)CC1 (stereo not given) | inconclusive: 2.91 µM [cytotoxic, full curve]

Looked up one by one from above (2):
Row | SMILES | Potency
58 | NNc1ccc2nnc(C(F)(F)C(F)(F)C(F)(F)F)n2n1 | inconclusive: 7.31 µM [rising, partial curve]
16 | COc1cccc(-c2nn(C)c3sc(C(=O)N4CCN(c5ccccc5)CC4)cc23)c1 | inconclusive: 32.6 µM [cytotoxic, partial curve, poor fit]
